Values quoted from earlier work as cited in paper PMC11003496 (Journal of Enzyme Inhibition and Medicinal Chemistry, 2023).

Tested on: MCF7 human breast adenocarcinoma cell line
Details: read-out: MCF-7 IC50; cited from earlier work

## CC/C(=C(\c1ccccc1)c1ccc(OCCN(C)C)cc1)c1ccccc1 [Tamoxifen, tamoxifen]
  IC50: 27.9 µM
